Results reported in PMC6642134, “Dopey1-Mon2 complex binds to dual-lipids and recruits kinesin-1 for membrane trafficking” (Nature Communications, 2019).
No constants are given. Whether binding was seen depends on the method and setting. In cells and extracts the contact can be indirect. A yes stands for co-enrichment or nearness to the bait. Other partners may have been found.

The chains behind the UniProt entries cited, without tags or fusion partners.
UniProt Q7Z3U7: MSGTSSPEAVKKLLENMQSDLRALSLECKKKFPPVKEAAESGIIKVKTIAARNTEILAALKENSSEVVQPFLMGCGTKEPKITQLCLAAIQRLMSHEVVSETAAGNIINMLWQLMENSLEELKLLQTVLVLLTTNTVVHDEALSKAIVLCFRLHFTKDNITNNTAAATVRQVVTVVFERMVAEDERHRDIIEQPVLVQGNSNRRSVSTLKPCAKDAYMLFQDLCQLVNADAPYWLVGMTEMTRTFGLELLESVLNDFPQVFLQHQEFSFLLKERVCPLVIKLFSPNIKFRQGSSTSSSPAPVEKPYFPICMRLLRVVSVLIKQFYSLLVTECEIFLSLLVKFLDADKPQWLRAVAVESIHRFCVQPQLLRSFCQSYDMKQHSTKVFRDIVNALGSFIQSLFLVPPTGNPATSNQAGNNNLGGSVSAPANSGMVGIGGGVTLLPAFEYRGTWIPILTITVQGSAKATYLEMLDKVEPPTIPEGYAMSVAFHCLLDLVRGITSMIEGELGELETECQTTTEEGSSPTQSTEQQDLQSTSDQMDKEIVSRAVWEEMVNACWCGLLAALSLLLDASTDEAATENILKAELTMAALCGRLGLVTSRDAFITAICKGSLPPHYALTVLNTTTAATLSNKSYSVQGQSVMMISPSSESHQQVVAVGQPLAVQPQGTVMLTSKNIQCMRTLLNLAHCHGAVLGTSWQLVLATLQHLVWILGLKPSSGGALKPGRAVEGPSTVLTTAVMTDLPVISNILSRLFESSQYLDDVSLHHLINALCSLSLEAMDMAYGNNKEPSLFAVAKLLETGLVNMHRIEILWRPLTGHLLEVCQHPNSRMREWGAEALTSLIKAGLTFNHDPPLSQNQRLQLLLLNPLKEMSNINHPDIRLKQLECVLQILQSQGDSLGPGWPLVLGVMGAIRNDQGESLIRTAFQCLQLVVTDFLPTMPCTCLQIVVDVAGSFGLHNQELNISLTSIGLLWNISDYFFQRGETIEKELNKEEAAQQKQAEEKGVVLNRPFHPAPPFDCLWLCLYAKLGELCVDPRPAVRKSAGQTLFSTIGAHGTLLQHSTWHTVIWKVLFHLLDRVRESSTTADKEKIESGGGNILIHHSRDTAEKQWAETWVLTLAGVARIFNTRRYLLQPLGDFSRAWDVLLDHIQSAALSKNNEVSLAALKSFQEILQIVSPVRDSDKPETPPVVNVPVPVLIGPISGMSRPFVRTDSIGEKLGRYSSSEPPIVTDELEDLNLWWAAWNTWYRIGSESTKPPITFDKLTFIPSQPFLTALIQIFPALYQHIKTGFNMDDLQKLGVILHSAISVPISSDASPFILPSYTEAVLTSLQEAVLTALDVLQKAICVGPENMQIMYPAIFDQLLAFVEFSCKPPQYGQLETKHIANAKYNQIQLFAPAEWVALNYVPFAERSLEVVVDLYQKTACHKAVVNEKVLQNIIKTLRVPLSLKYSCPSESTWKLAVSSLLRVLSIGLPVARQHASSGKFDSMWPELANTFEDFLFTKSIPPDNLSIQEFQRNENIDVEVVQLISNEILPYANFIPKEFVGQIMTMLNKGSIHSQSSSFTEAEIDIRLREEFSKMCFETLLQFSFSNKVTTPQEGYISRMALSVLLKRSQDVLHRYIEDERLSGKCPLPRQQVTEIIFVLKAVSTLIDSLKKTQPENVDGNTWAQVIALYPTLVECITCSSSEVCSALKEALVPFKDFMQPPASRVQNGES
UniProt B2RWN9: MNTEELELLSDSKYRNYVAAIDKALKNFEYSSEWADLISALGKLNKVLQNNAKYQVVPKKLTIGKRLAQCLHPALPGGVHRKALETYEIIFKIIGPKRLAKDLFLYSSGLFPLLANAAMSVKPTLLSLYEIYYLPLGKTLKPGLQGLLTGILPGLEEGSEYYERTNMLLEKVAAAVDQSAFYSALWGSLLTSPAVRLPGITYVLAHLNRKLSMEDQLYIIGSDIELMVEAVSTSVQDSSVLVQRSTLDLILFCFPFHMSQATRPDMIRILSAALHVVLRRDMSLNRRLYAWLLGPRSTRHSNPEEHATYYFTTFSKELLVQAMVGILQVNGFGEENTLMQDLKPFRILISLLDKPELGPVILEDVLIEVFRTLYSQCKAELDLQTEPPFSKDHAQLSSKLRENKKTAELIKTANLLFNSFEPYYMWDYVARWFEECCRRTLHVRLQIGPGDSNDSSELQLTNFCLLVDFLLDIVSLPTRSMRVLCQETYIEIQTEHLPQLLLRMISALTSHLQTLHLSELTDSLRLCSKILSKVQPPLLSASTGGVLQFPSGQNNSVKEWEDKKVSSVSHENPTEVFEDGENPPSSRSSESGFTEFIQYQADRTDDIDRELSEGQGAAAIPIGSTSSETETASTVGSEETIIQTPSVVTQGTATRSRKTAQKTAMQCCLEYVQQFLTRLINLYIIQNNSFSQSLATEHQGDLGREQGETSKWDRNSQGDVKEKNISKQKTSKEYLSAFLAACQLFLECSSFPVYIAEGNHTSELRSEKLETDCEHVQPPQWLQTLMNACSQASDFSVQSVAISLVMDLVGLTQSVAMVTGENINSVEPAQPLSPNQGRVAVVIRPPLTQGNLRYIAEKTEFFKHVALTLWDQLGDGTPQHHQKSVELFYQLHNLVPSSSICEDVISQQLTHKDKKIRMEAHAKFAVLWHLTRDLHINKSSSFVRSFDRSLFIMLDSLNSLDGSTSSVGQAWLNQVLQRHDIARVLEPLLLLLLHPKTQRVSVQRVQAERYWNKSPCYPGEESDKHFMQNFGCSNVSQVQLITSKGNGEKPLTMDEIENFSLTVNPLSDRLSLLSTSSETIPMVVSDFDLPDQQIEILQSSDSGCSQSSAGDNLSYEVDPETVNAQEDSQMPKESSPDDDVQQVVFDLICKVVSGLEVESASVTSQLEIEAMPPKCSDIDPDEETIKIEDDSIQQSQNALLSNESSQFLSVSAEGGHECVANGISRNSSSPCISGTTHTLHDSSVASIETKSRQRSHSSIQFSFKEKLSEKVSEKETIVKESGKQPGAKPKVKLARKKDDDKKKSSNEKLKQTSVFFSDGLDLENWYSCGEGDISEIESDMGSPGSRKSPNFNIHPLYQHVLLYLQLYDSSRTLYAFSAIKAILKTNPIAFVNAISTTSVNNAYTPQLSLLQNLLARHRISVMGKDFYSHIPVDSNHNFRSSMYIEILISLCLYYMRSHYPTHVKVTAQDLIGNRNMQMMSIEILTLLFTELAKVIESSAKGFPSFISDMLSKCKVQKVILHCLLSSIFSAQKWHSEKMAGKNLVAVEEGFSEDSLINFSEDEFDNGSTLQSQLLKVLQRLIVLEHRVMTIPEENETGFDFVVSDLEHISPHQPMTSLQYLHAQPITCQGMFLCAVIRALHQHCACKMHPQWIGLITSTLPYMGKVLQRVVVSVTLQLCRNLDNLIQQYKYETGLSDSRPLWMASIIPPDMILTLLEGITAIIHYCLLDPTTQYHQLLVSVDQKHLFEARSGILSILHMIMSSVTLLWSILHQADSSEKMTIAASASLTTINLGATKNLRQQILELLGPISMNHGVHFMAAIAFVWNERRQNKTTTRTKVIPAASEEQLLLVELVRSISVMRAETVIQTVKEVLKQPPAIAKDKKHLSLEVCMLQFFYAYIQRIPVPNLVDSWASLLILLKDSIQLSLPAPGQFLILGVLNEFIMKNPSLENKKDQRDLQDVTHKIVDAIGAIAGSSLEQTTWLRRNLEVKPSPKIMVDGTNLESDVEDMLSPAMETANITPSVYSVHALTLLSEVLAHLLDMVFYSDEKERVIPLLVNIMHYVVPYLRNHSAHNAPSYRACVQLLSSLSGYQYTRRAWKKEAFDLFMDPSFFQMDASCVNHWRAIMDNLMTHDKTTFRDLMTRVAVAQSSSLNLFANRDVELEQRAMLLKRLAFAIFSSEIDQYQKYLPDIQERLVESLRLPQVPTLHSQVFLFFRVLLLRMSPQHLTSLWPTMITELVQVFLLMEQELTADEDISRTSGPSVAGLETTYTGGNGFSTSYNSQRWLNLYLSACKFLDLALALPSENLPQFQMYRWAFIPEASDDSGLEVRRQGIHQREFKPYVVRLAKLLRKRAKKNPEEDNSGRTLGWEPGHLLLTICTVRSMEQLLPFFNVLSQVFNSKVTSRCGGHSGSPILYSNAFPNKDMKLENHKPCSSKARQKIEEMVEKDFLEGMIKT

Tests used:
[1] = target: Mon2 (endogenous) (human (endogenous in HEK293T and HeLa)) (UniProt Q7Z3U7); assay: affinity purification with mass spectrometry; large-scale IP from HEK293T lysate with Mon2 or Dopey1 antibody (control IgG), Protein A/G beads; 40 mM HEPES pH 7.3, 0.1% Triton X-100, 120 mM NaCl, 4 h at 4 °C; gel slices to LC-MS
[2] = target: Dopey1 (endogenous) (human (endogenous in HEK293T)) (UniProt B2RWN9); assay: as above

Dopey1 (endogenous) (from UniProt B2RWN9 1-2456)
binding [1]: binds

Mon2 (endogenous) (from UniProt Q7Z3U7 1-1717)
binding [2]: binds
